Values of other authors, collected in patent US20060188879A1, “Crh responsive genes in cns” (Janssen Pharmaceutica N.V., priority 2002, published 2006).
At least one structure is not confirmed: it was looked up by name or label, or the drawing left a doubt.

How the values were obtained:
[1] = tested on: primary hypothalamic neuron cultures; conditions: primary hypothalamic neuron cultures (Scarceriaux et al., 1996); cited from earlier work
[2] = tested on: Nts1 mRNA; conditions: PVN; hypercortisolism or dexamethasone administration (Nicot et al., 1995); cited from earlier work

Structure (SMILES): C[C@@H]1C[C@H]2[C@@H]3CCC4=CC(=O)C=C[C@]4(C)[C@@]3(F)[C@@H](O)C[C@]2(C)[C@@]1(O)C(=O)CO [dexamethasone]
- [125I]NT binding [1]: decreases
- Selective downregulation of Nts1 mRNA [2]: 40-70%
